The other results are listed elsewhere or left out. The data scatter; read single values as rough.
molecular target: T1, DGKH C647 (UniProt Q86XP1); test: log2 mean competition ratio of IA-DTB cysteine labelling (DMSO/compound) (log2 ratio); higher = stronger cysteine engagement by compound; details: 50 µM; treatment time: 4 h; cell line lysate: HEK293T
T1 sequence (whole entry): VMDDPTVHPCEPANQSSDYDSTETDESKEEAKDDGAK
Protocol: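 IA-DTB competitive cysteine chemoproteomics in HEK293T RIPA lysate. Lysates were treated with compound 29 or 30 at 50 or 200 µM for 4 h, then IA-DTB (500 µM, 1 h), trypsin-digested, NeutrAvidin-enriched and analysed by diaPASEF. Competition ratio = intensity DMSO / intensity compound (n=4 treated, n=64 DMSO); binding: mean log2 CR ≥ 1 and p ≤ 0.05 plus QC filters. Target is the cysteine site.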

Compound	log2 mean competition ratio
O=C(CCl)N[C@H]1CCCc2ccccc21	0.142
O=C(CCl)N[C@@H]1CCCc2ccccc21	-0.911

same assay, conditions: 200 µM; treatment time: 4 h; cell line lysate: HEK293T

Compound	log2 mean competition ratio
O=C(CCl)N[C@H]1CCCc2ccccc21	-0.756
O=C(CCl)N[C@@H]1CCCc2ccccc21	-0.453
